Data taken from patent US10172789B2, “Compositions for transdermal delivery of mTOR inhibitors” (PALVELLA THERAPEUTICS LLC, priority 2013, dated 2019).

Experiment: Solubility of rapamycin in solvents
Assay type: physicochemical
Conditions: benzyl alcohol solution
Excerpt: mTOR inhibitors are a potent class of pharmaceutically active agents that can be useful in treating a variety of conditions. There is a need that exists in the marketplace for topical formulation for delivering mTOR inhibitors. Formulations for mTOR inhibitors can be challenging because of their structures and solubility challenges that exist for many of these compounds. […] Benzyl alcohol has been identified as a solvent that can effectively solubilize rapamycin. In particular, benzyl alcohol can support 20 wt % solutions and higher of rapamycin. […] For example, formulations utilizing Span 80 and/or Tween 20 as surfactants were only able to achieve benzyl alcohol loading of 20 wt % or less.

solubility of rapamycin in benzyl alcohol: ≥ 20 wt %
SMILES: CO[C@H]1C[C@@H]2CC[C@@H](C)[C@@](O)(O2)C(=O)C(=O)N2CCCC[C@H]2C(=O)O[C@H]([C@H](C)C[C@@H]2CC[C@@H](O)[C@H](OC)C2)CC(=O)[C@H](C)/C=C(\C)[C@@H](O)[C@@H](OC)C(=O)[C@H](C)C[C@H](C)/C=C/C=C/C=C/1C [rapamycin]
